# Results published in the supplement of paper PMC8166895.
# Where a name gives a salt, the structure may show the parent alone. The list shows a part of the results. Most entries show no effect beyond the scatter of the controls.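 A single-replicate pilot screen of approved drugs and clinical or known-target compounds measured melting temperature via differential scanning fluorimetry. Top stabilizing hits raised the melting point by 2 °C or more; negative shifts indicate destabilization.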
# Test system: SARS-CoV-2 main protease (Mpro, nsp5)
# Assay: thermal shift ΔTm of Mpro relative to plate average Tm; higher = stronger thermal stabilization of Mpro (binding)
# Details: 10 µM; protein concentration 1 µM
row,Compound,thermal shift ΔTm of Mpro [°C]
1,N#Cc1cc(CN2CCC(Nc3ncnc4sc(Cl)cc34)CC2)ccc1F,-0.133
2,C[C@]12CCC(=O)C=C1[C@@H]1C[C@@H]1[C@H]1[C@@H]3[C@@H]4C[C@@H]4[C@@]4(CCC(=O)O4)[C@@]3(C)CC[C@@H]12 [Drospirenone],-0.0788
3,Nc1c(C(=O)Nc2ccc(F)cc2)sc2nc(-c3cccs3)cc(C(F)(F)F)c12,-0.103
4,IC12CC3CC(CC(C3)C1)C2,0.0675
5,CC1(C)S[C@@H]2[C@H](NC(=O)[C@H](N)c3ccccc3)C(=O)N2[C@H]1C(=O)O [Ampicillin sodium],0.133
6,CC1(C)S[C@@H]2[C@H](NC(=O)[C@H](N)c3ccccc3)C(=O)N2[C@H]1C(=O)O [Ampicillin Trihydrate],-0.122
7,C=C[C@H]1CN2CC[C@H]1C[C@H]2[C@H](O)c1ccnc2ccc(OC)cc12 [Quinine HCl Dihydrate],0.0693
8,CC(=O)NCCCCCC(=O)O [Acexamic Acid],0.198
9,O=C(O)c1cc(=O)[nH]c(=O)[nH]1 [Orotic acid (6-Carboxyuracil)],-0.108
10,CC[C@@H]1CN(C(=O)NCC(F)(F)F)C[C@@H]1c1cnc2cnc3[nH]ccc3n12 [Upadacitinib],-0.00845
11,Cc1ccccc1C(C(=O)NC1CCCCC1)N(C(=O)Cn1ccnc1C)c1cccc(F)c1 (configuration not stated),-0.0775
12,Cc1ccc(C(=O)Nc2ccc(CN3CCN(C)CC3)c(C(F)(F)F)c2)cc1C#Cc1cnc2[nH]ncc2c1,0.0385
13,Oc1ccc(-c2nc(-c3ccc(F)cc3)c(-c3ccncc3)[nH]2)cc1,0.342
14,COc1ccc2c(c1)[C@]13CCCC[C@@H]1[C@H](C2)N(C)CC3 [Dextromethorphan HBr monohydrate],0.351
15,Cc1ccc(-n2nc(C(C)(C)C)cc2NC(=O)NCc2cc(F)ccc2Oc2ccc3c(cnn3CCO)c2)cc1 [Pexmetinib (ARRY-614)],0.125
16,O=C(NC[C@H](O)CO)c1ccncc1Nc1ccc(I)cc1F,0.343
17,CCC(NC(C)C)C(O)c1ccc(O)c2[nH]c(=O)ccc12 (configuration not stated) [Procaterol hydrochloride],-0.116
18,C#Cc1cccc(Nc2ncnc3cc(OCCOC)c(OCCO)cc23)c1,-0.042
19,CC[C@H](CC#N)OC(=O)N[C@@H](C)c1cccc(NC(=O)Nc2ccc(-c3cnco3)c(OC)c2)c1,0.00477
20,Cn1cnc2c(F)c(Nc3ccc(Br)cc3F)c(C(=O)NOCCO)cc21,-0.0424
21,Nc1ccc(-c2cnc(N)c(-c3ccc(Cl)cc3)c2)cn1,-0.0273
22,Nc1nc(N)c(N=O)c(OCC2CCCCC2)n1,0.0312
23,NC(=O)c1cnccn1 [Pyrazinamide],0.0494
24,CC(C)(C)CC(C)(C)c1cc(Cc2cc(C(C)(C)CC(C)(C)C)cc(-n3nc4ccccc4n3)c2O)c(O)c(-n2nc3ccccc3n2)c1 [Bisoctrizole],0.404

# Random excerpt: 3 records from the list, in no set order.
row,Compound,thermal shift ΔTm of Mpro [°C]
20,Cn1cnc2c(F)c(Nc3ccc(Br)cc3F)c(C(=O)NOCCO)cc21,-0.0424
8,CC(=O)NCCCCCC(=O)O [Acexamic Acid],0.198
2,C[C@]12CCC(=O)C=C1[C@@H]1C[C@@H]1[C@H]1[C@@H]3[C@@H]4C[C@@H]4[C@@]4(CCC(=O)O4)[C@@]3(C)CC[C@@H]12 [Drospirenone],-0.0788

# The list continues:

row,Compound,thermal shift ΔTm of Mpro [°C]
1,COc1cc2nc(N3CCCC3)nc(NCCCCCN3CCCC3)c2cc1OC,-0.153
2,CC(C)C[C@H](NC(=O)[C@H](Cc1ccccc1)C[C@@H](O)[C@H](Cc1ccccc1)NC(=O)OC(C)(C)C)C(=O)N[C@@H](Cc1ccccc1)C(N)=O,0.0406
3,Cc1cnc(-c2ccccc2C(C)C)nc1NCc1ccc(-n2ccnn2)cc1,-0.189
4,CSc1nc2cc(Cl)c(Oc3cccc(Cl)c3Cl)cc2[nH]1 [Triclabendazole],0.0676
5,Cc1ccccc1N1CCN(CCc2nnc3n2CCCC3)CC1 [Dapiprazole Hydrochloride],-0.0949
6,Nc1ccc(-c2ccc3ncc4ccc(=O)n(-c5cccc(C(F)(F)F)c5)c4c3c2)cn1 [Torin 2],-0.342
7,CCCCCCCCCCCCCCCCn1cc[n+](Cc2ccccc2)c1C,-0.241
8,O=C1[C@@H]2[C@H]3CC[C@H](C3)[C@@H]2C(=O)N1C[C@@H]1CCCC[C@H]1CN1CCN(c2nsc3ccccc23)CC1 [Lurasidone hydrochloride],-0.0834
9,COc1cccc2c1C(=O)c1c(O)c3c(c(O)c1C2=O)C[C@@](O)(C(=O)CO)C[C@@H]3O[C@H]1C[C@H](N)[C@@H](O)[C@H](C)O1 [Epirubicin HCl],0.249
10,CCCN(CCC)CCc1cccc2c1CC(=O)N2 [Ropinirole HCl],0.205
11,CN[C@H]1C(=O)N[C@@H]2Cc3ccc(cc3)Oc3cc4cc(c3O[C@@H]3O[C@H](C(=O)O)[C@@H](O)[C@H](O)[C@H]3NC(=O)CCCCCCCCC(C)C)Oc3ccc(cc3Cl)[C@@H](O)[C@@H]3NC(=O)[C@H](NC(=O)[C@@H]4NC(=O)[C@@H](NC2=O)c2cc(cc(O)c2Cl)Oc2cc1ccc2O)c1ccc(O)c(c1)-c1c(O[C@H]2O[C@H](CO)[C@@H](O)[C@H](O)[C@@H]2O)cc(O)cc1[C@@H](C(=O)O)NC3=O [Dalbavancin Impurity],0.0397
12,NC(=O)c1cccc(-c2cccc(OC(=O)NC3CCCCC3)c2)c1,-0.00949
13,COC[C@H]1OC(=O)c2coc3c2[C@@]1(C)C1=C(C3=O)[C@@H]2CCC(=O)[C@@]2(C)C[C@H]1OC(C)=O [Wortmannin],0.327
14,NCCOc1ccc(Cl)cc1C(=O)Nc1ccc([N+](=O)[O-])cc1Cl [HJC0152 hydrochloride],-0.0037
15,CC(=O)O[C@H]1C(=O)[C@@]2(C)[C@H]([C@H](OC(=O)c3ccccc3)[C@]3(O)C[C@H](OC(=O)[C@H](O)[C@@H](NC(=O)c4ccccc4)c4ccccc4)C(C)=C1C3(C)C)[C@]1(OC(C)=O)CO[C@@H]1C[C@@H]2O [Paclitaxel],-0.203
16,COc1c(-c2ccc3cc(NS(C)(=O)=O)ccc3c2)cc(-n2ccc(=O)[nH]c2=O)cc1C(C)(C)C [Dasabuvir],-0.49
17,COC(=O)/C=C/C(=O)OCCN1C(=O)CCC1=O [Diroximel Fumarete],0.0913
18,CN1CCC(Nc2nc(Nc3ccc(Oc4ccccc4)cc3)c3c(=O)[nH]cc(Br)c3n2)CC1,-0.0185
19,O=C([O-])[C@H](O)[C@@H](O)[C@H](O)[C@H](O)CO.O=C([O-])[C@H](O)[C@@H](O)[C@H](O)[C@H](O)CO.[Ca+2] [Calcium gluconate],0.111
20,N#Cc1ccc(-c2csc(NN=C3CCCC3)n2)cc1 [Remodelin],-0.238
21,O=C(/C=C/c1ccc(O)cc1)c1ccc(O)cc1O [Isoliquiritigenin],0.848
22,Cc1c(NC(=O)c2cccnc2)c(=O)n(-c2ccccc2)n1C [Nifenazone],0.0321
23,CS(=O)(=O)OCCCCOS(C)(=O)=O [Busulfan],-0.0173
24,OCc1c[nH]c2ccccc12 [Indole-3-carbinol],-0.106

# 2 entries from above, bar-delimited.
row | Compound | thermal shift ΔTm of Mpro [°C]
6 | CC1(C)S[C@@H]2[C@H](NC(=O)[C@H](N)c3ccccc3)C(=O)N2[C@H]1C(=O)O [Ampicillin Trihydrate] | -0.122
7 | CCCCCCCCCCCCCCCCn1cc[n+](Cc2ccccc2)c1C | -0.241

# Next part.

row,Compound,thermal shift ΔTm of Mpro [°C]
1,CC1(C)CC(O)CC(C)(C)N1[O] [Tempol],-0.186
2,O=C(Nc1ccccc1)C12CC1C(=NO)c1ccccc1O2 (configuration not stated),-0.0845
3,N#CCNC(=O)c1ccc(-c2ccnc(Nc3ccc(N4CCOCC4)cc3)n2)cc1,-0.0998
4,CCc1ccc(-c2nc(CSCC(=O)NCCc3ccccc3)c(C)o2)cc1,-0.211
5,C[C@@H]1[C@H]2c3cc4c(cc3O[C@@]35OCOC3=CC(=O)[C@H](C[C@H]1C)[C@@H]25)OCO4 [Sauchinone],-0.0782
6,O=C(OOC(=O)c1ccccc1)c1ccccc1 [Benzoyl peroxide],0.36
7,Cc1ccc2nc(CN(CCN(Cc3nc4ccc(C)cc4[nH]3)Cc3nc4ccc(C)cc4[nH]3)Cc3nc4ccc(C)cc4[nH]3)[nH]c2c1,0.222
8,CO/N=C(\C(=O)N[C@@H]1C(=O)N2C(C(=O)[O-])=C(C[n+]3cccc4c3CCC4)CS[C@H]12)c1csc(N)n1 [Cefpirome sulfate],0.2
9,NC(=O)CCCCC1CCSS1 (configuration not stated) [Thioctamide],-0.00248
10,Cc1ncc(-c2ccnc(Nc3ccc(S(C)(=O)=O)cc3)n2)n1C(C)C,0.0651
11,Nc1c(S(=O)(=O)c2ccccc2)c2nc3ccccc3nc2n1-c1ccc(F)cc1,-0.0827
12,COc1nc(OCc2cccc(-c3ccccc3)c2C)ccc1CNCCNC(C)=O [PD1-PDL1 inhibitor 2],-0.318
13,COc1ccc(C(=O)Nc2cc(-c3ccccc3)[nH]n2)cc1OC,-0.169
14,O=S(=O)(CC1CS1)c1ccc(Oc2ccccc2)cc1 (configuration not stated),-0.178
15,COc1ccc(S(=O)(=O)N[C@@H](CNc2nc(C)nc(N3CCC(c4ccc5c(n4)NCCC5)CC3)c2C)C(=O)O)cc1,0.0118
16,CC(C)(O)[C@@H]1CC[C@](C)([C@H]2[C@@H](O)C[C@@]3(C)[C@@H]4C[C@H](O)[C@H]5C(C)(C)[C@@H](O[C@@H]6OC[C@@H](O)[C@H](O)[C@H]6O[C@@H]6O[C@H](CO)[C@@H](O)[C@H](O)[C@H]6O)CC[C@@]56C[C@@]46CC[C@]23C)O1 [Astragaloside III],0.0451
17,c1nc2c(NC3CCCCC3)nc(Nc3ccc(N4CCOCC4)cc3)nc2[nH]1 [Reversine],0.158
18,COc1cc2nccc(Oc3ccc(NC(=O)NC4CC4)c(Cl)c3)c2cc1C(N)=O [Lenvatinib (E7080)],0.0338
19,CNc1cc(-c2cccc(Cl)c2Cl)nc(N)n1,-0.144
20,CCC(C)(Oc1ccc(C2(c3ccc(OC(C)(CC)C(=O)O)cc3)CCCCC2)cc1)C(=O)O (configuration not stated) [Clinofibrate],0.0406
21,C[C@@H](O[C@H]1OCCN(Cc2nn(P(=O)(O)O)c(=O)[nH]2)[C@H]1c1ccc(F)cc1)c1cc(C(F)(F)F)cc(C(F)(F)F)c1 [Fosaprepitant dimeglumine salt],-0.121
22,"CN(C)CC(=O)O [N,N-Dimethylglycine]",0.171
23,Cc1c(CN2CCN(C(=O)[C@H](C)O)CC2)sc2c(N3CCOCC3)nc(-c3cnc(N)nc3)nc12,-0.165
24,CC(C)(CO)c1cc2cc(NC(=O)C3(c4ccc5c(c4)OC(F)(F)O5)CC3)c(F)cc2n1C[C@@H](O)CO,-0.0867
